Consider ten targets from the supplement of paper PMC12819154, “High-throughput peptide-centric local stability assay extends protein–ligand identification to membrane proteins, tissues and bacteria” (Nature Structural & Molecular Biology, 2025).

Chains of the proteins cited; added tags and fusions are not shown. Lines headed by an entry give the natural chain unless they say otherwise; changes in a name come on top.
UniProt O14828: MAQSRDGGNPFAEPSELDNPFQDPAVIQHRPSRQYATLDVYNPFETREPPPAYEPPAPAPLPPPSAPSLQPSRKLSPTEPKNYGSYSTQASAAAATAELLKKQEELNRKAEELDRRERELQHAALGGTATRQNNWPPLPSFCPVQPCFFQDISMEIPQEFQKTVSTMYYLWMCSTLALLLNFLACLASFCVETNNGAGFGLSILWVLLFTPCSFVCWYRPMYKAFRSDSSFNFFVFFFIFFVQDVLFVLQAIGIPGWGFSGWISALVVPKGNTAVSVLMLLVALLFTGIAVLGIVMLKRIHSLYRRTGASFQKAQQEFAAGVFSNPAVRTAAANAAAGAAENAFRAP
UniProt A8MTY0: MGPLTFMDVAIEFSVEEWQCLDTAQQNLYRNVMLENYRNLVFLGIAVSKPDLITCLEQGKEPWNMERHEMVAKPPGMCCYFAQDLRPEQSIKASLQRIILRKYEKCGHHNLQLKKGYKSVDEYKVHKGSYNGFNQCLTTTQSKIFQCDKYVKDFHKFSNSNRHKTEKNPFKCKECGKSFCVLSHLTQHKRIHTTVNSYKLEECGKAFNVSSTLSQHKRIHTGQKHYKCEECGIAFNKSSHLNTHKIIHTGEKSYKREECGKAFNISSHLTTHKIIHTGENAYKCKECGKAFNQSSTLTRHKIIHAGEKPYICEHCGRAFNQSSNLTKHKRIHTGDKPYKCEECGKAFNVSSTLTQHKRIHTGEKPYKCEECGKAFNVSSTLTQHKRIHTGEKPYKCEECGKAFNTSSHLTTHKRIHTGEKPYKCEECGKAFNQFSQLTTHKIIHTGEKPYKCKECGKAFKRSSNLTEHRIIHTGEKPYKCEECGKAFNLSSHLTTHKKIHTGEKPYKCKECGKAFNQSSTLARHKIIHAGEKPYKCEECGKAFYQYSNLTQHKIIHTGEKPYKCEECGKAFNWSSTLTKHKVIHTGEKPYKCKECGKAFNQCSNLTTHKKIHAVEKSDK
UniProt O00534: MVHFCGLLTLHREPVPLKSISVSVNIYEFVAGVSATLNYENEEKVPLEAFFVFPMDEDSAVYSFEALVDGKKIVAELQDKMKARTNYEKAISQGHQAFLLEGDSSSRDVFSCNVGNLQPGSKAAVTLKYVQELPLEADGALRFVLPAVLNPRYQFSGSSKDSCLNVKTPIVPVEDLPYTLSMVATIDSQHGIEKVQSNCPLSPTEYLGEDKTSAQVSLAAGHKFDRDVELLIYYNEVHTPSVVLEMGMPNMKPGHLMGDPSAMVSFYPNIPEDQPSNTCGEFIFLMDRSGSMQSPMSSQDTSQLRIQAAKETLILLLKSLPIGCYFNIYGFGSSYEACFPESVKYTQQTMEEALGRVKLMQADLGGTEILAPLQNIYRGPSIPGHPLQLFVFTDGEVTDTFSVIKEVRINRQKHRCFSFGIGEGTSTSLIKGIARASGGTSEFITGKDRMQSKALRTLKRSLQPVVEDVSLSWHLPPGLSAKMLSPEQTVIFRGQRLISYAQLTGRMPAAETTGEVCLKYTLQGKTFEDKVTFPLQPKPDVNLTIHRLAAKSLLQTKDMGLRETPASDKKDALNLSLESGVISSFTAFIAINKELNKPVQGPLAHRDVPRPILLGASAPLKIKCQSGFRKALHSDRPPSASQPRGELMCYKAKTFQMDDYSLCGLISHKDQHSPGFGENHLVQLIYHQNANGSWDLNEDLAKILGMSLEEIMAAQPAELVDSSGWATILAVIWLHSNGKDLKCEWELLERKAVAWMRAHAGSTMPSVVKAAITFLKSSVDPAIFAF
UniProt O00461: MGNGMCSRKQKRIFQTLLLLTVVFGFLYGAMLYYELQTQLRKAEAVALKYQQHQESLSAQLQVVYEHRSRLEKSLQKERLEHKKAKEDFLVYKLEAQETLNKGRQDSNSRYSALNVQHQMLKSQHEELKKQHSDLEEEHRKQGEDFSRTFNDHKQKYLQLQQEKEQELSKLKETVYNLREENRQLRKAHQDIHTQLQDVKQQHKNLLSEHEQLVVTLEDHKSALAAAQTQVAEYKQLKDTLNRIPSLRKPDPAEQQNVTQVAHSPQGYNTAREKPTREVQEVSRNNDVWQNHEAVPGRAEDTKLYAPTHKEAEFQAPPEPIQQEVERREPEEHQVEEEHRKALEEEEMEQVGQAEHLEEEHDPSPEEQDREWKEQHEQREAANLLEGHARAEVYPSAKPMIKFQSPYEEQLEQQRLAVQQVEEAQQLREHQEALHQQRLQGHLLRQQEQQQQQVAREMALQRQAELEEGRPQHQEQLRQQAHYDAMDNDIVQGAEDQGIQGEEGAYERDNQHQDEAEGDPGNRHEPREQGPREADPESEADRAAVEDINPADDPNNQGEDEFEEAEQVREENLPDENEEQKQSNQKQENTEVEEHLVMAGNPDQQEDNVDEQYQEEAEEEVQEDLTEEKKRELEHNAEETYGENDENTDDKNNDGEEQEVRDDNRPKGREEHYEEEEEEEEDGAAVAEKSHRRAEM
UniProt O15392, whole entry: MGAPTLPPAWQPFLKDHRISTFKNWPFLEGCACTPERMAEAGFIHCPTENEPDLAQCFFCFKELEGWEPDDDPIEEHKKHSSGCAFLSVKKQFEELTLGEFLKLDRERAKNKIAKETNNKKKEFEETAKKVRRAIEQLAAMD
UniProt O14773: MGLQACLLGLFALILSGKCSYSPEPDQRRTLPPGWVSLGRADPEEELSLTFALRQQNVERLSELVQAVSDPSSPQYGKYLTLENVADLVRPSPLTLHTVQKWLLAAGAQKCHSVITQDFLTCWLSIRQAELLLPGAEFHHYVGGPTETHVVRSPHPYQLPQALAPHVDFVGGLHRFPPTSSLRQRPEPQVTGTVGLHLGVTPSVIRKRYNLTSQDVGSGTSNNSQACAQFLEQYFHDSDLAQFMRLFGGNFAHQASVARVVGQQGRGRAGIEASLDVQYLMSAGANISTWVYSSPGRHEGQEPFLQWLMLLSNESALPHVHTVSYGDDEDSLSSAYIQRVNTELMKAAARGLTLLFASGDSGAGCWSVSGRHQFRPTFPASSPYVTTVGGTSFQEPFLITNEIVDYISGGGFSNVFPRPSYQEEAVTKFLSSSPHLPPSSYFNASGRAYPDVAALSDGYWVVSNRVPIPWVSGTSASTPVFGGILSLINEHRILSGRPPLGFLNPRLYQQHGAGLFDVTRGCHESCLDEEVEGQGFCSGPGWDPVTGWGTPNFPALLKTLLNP
UniProt A9UHW6: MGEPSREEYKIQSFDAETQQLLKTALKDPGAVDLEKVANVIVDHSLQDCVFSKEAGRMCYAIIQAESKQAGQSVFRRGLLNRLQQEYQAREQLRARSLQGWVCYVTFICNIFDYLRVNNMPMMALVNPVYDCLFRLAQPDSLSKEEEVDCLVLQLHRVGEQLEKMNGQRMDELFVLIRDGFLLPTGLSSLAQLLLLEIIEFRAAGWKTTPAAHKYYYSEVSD
UniProt O15014: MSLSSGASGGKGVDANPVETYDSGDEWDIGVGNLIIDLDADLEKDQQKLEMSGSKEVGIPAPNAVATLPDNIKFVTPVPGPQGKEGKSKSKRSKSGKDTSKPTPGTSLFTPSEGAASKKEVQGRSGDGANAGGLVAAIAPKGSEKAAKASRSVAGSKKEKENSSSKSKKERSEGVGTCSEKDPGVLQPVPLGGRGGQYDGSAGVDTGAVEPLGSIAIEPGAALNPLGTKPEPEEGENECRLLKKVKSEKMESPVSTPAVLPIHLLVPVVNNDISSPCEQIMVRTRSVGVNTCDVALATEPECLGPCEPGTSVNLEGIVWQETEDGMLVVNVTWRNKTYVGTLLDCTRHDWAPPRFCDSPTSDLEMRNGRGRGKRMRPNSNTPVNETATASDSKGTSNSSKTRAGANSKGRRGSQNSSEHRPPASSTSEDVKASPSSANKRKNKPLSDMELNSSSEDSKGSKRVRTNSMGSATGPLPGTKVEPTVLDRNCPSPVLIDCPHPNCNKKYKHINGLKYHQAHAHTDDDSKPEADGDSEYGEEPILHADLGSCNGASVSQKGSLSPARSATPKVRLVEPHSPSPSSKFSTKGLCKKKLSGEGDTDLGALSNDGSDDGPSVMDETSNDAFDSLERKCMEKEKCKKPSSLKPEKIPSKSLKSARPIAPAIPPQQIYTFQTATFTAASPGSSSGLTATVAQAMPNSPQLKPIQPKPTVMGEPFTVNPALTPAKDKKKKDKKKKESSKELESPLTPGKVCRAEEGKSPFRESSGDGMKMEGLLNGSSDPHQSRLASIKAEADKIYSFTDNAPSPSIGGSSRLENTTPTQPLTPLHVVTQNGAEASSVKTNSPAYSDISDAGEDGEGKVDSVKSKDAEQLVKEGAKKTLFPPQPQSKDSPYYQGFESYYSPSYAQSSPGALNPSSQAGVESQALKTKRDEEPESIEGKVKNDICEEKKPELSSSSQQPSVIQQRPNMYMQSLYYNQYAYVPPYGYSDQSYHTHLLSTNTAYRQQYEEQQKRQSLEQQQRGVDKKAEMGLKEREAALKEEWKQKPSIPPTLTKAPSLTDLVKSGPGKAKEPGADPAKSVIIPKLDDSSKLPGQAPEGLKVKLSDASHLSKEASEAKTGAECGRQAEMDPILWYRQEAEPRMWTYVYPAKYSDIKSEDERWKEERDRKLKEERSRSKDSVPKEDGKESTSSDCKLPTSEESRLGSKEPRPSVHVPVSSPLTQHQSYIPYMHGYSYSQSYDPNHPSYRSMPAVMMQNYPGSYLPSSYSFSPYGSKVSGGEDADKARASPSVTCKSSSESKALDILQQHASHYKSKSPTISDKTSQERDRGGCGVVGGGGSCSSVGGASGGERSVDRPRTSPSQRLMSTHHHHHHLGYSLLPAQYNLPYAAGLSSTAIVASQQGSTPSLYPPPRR
UniProt A7MCY6, whole entry: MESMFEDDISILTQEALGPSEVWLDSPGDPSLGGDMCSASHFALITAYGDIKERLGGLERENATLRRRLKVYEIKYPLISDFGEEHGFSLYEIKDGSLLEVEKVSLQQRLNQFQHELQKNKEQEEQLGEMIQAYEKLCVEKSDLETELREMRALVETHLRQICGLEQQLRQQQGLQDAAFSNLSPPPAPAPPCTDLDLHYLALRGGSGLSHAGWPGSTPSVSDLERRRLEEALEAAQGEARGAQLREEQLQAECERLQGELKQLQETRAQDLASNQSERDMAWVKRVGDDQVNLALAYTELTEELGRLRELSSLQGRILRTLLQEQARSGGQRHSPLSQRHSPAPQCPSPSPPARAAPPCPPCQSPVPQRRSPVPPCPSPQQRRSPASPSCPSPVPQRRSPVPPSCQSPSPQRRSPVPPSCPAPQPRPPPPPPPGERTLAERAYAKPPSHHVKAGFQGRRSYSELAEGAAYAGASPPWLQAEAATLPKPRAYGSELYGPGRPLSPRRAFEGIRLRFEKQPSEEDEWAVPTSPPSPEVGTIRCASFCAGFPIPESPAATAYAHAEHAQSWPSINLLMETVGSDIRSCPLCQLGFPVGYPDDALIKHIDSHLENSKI
UniProt O00116: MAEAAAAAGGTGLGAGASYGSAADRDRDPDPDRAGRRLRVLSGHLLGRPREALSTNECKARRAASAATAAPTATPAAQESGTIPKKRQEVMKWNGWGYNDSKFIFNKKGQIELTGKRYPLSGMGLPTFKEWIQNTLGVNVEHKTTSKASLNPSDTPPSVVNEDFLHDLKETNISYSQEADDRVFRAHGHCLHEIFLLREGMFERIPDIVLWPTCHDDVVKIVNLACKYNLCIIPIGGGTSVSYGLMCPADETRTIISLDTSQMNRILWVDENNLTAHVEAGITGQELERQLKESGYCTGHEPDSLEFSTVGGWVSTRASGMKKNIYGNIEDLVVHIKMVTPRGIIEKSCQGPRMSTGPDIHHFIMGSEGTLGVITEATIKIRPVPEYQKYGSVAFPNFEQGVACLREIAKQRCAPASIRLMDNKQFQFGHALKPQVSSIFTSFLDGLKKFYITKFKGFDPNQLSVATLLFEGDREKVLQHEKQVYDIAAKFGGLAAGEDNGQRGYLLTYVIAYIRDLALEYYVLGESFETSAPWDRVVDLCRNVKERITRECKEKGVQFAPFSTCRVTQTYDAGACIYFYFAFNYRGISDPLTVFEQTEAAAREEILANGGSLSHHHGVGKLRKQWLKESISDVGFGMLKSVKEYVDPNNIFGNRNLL

Some of the results follow. Small differences around the control level are noise.

Compound in this test: CN[C@@H]1C[C@H]2O[C@@](C)([C@@H]1OC)n1c3ccccc3c3c4c(c5c6ccccc6n2c5c31)C(=O)NC4 [staurosporine]
Kind of test: log2 fold change of tryptic peptide abundance, ligand vs vehicle (limited proteolysis) (log2 ratio); higher = more trypsin-susceptible (destabilized). The settings on record: ligand concentration: 20 uM; sample: K562 cleared lysate; digestion: 4 min, 22 C (HT-PELSA RT4min, Orbitrap Astral).
“SCAMP3 (peptide sequence: AQQEFAAGVFSNPAVR, peptide start residue: 314) (UniProt O14828)”: the log2 fold change worked out at 0.15.
Turning to “ZNF724 (peptide sequence: AFNVSSTLSQHK, peptide start residue: 206) (UniProt A8MTY0)”, the log2 fold change was -0.575.
Consider “VWA5A (peptide sequence: TFQMDDYSLCGLISHK, peptide start residue: 654) (UniProt O00534)”, for which the log2 fold change was -0.131.
Regarding “GOLIM4 (peptide sequence: EADPESEADR, peptide start residue: 533) (UniProt O00461)”, the log2 fold change is -1.21.
To “BIRC5 (peptide sequence: KQFEELTLGEFLK, peptide start residue: 91) (UniProt O15392)” belongs -0.189.
In the case of “TPP1 (peptide sequence: LYQQHGAGLFDVTR, peptide start residue: 507) (UniProt O14773)” it was -0.233; in that of “MIF4GD (peptide sequence: GEPSREEYK, peptide start residue: 2) (UniProt A9UHW6)”, -0.118.
Turning to “ZNF609 (peptide sequence: NKPLSDMELNSSSEDSK, peptide start residue: 442) (UniProt O15014)”, the log2 fold change is -0.353.
Consider “TBKBP1 (peptide sequence: QICGLEQQLR, peptide start residue: 161) (UniProt A7MCY6)”, for which the log2 fold change is -0.364.
On to “AGPS (peptide sequence: ESISDVGFGMLK, peptide start residue: 629) (UniProt O00116)”, for which the log2 fold change is 0.142.
